Data: the supplement of paper PMC11732987, “Enantioselective OTUD7B fragment discovery through chemoproteomics screening and high-throughput optimisation” (Communications Chemistry, 2025)
The list shows a part of the results. The data scatter; read single values as rough.

Sequences of proteins named here, by UniProt entry; tags and fusion partners are left off. A change or cut given only in a name is not applied to a line headed by its entry.
UniProt Q6UVK1, whole entry, looked up: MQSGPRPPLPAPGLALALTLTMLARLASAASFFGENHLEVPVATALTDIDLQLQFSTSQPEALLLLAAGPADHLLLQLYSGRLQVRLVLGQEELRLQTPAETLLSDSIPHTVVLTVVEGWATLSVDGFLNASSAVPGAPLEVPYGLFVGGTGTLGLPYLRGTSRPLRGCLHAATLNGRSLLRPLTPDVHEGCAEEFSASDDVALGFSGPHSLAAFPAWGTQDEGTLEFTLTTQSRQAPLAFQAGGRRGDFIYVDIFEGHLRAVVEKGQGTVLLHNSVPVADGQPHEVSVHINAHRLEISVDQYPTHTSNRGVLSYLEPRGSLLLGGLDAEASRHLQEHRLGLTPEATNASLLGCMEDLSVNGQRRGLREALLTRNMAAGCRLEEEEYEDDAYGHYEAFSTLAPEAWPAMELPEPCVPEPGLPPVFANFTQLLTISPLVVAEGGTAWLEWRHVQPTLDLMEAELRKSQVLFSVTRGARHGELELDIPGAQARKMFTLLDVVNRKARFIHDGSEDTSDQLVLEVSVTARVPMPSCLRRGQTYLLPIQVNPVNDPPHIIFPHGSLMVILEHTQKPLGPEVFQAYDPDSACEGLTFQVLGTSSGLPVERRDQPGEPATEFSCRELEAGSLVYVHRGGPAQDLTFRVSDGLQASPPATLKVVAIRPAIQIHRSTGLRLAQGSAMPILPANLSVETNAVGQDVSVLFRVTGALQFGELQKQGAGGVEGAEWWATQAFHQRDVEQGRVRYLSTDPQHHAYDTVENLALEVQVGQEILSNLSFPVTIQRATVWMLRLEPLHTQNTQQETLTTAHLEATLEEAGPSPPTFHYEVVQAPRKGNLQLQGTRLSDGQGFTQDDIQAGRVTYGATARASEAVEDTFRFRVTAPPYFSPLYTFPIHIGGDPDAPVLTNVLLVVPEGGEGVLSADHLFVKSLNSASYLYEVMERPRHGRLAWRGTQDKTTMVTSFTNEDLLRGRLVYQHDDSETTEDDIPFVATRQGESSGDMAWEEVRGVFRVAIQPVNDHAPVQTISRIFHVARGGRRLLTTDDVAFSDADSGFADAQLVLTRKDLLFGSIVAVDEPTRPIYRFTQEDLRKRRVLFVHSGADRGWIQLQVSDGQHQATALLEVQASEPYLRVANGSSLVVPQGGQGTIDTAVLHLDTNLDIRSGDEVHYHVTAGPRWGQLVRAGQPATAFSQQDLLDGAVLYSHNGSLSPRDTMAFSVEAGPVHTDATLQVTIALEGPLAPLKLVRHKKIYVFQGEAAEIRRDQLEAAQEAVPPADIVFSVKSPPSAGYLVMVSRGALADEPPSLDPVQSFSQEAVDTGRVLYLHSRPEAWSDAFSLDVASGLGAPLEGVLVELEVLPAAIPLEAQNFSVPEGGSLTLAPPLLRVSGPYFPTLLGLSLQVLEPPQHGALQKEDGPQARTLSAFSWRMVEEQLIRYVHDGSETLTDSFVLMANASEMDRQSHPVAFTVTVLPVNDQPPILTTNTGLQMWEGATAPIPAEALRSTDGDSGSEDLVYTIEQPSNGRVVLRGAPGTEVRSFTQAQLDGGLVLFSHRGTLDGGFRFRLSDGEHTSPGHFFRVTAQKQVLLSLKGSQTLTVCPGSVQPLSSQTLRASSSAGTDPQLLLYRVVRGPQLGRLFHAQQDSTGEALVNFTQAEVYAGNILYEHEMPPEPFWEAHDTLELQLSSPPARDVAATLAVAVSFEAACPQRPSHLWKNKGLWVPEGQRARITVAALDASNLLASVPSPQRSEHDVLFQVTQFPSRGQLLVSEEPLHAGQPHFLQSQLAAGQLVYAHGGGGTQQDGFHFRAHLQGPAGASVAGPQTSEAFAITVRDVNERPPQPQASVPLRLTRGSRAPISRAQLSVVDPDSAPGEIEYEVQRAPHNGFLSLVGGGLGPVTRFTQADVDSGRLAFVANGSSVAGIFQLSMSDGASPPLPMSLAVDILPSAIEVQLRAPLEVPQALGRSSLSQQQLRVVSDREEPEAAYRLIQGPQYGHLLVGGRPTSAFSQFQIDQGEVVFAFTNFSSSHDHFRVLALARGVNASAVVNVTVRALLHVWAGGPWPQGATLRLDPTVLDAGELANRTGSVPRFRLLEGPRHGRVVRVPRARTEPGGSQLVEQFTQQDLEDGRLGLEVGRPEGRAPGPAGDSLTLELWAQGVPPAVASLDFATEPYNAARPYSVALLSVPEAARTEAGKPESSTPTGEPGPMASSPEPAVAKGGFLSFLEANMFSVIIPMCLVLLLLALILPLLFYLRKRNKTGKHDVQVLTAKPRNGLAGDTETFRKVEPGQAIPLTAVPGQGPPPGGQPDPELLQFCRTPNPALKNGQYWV
UniProt P55060: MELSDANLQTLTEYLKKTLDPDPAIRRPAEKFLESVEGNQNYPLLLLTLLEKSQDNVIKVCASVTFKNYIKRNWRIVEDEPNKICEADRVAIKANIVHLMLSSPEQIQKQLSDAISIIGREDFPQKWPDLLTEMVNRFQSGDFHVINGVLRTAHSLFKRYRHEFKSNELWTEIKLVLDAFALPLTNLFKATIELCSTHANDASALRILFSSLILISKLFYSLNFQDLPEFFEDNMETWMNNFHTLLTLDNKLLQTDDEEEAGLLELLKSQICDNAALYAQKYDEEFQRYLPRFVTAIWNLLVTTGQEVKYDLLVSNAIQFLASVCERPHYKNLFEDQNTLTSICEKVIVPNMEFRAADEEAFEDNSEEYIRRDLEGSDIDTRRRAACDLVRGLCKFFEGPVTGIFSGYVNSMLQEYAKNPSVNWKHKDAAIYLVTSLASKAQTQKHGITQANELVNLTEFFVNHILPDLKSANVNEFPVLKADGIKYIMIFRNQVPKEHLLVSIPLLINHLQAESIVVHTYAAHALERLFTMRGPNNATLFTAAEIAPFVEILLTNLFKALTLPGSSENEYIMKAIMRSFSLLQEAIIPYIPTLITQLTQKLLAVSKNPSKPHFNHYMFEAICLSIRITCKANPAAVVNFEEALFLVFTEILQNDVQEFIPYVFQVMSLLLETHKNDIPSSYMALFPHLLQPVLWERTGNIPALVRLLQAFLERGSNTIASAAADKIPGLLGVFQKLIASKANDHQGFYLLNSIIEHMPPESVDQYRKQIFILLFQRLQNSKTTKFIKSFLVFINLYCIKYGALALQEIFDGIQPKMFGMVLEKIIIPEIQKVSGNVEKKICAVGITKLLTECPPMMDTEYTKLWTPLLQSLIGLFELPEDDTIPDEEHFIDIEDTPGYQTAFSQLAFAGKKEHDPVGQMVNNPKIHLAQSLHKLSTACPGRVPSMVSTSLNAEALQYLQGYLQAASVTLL
UniProt Q9NR30: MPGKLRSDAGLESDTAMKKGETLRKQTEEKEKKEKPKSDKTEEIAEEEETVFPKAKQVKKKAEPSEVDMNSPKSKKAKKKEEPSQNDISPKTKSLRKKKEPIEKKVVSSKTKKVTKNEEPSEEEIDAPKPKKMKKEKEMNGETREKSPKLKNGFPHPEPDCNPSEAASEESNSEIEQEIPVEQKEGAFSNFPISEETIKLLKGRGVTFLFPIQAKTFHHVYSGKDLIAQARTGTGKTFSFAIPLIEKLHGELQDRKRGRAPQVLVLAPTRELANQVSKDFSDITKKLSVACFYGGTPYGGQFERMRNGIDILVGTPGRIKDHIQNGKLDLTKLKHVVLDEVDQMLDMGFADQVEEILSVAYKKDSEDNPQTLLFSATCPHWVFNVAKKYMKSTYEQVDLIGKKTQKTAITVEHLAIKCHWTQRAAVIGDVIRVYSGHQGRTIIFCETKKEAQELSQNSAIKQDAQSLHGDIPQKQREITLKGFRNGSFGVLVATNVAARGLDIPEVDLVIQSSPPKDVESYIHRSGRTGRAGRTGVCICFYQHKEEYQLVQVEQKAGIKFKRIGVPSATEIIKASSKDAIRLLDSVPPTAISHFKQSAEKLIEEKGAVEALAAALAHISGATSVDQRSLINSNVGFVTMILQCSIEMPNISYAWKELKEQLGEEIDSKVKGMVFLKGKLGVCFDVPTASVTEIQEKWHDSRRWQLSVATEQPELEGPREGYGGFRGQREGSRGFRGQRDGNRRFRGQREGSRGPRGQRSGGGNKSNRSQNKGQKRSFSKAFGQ
UniProt P17812: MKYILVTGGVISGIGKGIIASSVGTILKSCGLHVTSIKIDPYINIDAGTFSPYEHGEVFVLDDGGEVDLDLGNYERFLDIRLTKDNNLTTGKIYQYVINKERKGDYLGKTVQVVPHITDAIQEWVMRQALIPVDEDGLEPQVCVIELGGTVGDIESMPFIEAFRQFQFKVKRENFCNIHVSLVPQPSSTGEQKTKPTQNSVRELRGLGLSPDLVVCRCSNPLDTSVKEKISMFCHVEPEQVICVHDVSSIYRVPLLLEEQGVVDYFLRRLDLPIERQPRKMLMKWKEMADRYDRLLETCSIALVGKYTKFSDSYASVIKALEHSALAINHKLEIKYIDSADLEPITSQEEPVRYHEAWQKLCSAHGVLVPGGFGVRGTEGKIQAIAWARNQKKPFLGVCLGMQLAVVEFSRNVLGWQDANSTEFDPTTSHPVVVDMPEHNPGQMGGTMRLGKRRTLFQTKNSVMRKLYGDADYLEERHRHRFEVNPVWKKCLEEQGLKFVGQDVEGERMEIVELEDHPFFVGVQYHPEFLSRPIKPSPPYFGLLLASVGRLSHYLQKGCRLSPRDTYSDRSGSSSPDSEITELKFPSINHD
UniProt Q8NCG7: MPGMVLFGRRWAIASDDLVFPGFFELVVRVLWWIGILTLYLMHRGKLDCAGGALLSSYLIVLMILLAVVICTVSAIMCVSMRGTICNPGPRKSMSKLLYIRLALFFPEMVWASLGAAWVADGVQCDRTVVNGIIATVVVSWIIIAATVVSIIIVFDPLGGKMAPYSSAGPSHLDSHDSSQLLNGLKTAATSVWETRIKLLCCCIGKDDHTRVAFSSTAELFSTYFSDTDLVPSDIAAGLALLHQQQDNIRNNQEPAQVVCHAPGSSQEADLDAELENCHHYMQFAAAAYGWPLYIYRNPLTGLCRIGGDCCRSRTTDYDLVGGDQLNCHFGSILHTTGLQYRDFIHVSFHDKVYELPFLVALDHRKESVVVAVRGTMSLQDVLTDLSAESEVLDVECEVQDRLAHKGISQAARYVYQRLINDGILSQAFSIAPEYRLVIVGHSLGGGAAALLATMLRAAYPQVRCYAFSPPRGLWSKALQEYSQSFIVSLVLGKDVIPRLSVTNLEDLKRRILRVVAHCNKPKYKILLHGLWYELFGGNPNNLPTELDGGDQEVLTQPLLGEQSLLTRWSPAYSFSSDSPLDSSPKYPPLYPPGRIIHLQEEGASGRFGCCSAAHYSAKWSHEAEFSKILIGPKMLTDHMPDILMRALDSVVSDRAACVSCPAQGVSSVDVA
UniProt Q6PI48: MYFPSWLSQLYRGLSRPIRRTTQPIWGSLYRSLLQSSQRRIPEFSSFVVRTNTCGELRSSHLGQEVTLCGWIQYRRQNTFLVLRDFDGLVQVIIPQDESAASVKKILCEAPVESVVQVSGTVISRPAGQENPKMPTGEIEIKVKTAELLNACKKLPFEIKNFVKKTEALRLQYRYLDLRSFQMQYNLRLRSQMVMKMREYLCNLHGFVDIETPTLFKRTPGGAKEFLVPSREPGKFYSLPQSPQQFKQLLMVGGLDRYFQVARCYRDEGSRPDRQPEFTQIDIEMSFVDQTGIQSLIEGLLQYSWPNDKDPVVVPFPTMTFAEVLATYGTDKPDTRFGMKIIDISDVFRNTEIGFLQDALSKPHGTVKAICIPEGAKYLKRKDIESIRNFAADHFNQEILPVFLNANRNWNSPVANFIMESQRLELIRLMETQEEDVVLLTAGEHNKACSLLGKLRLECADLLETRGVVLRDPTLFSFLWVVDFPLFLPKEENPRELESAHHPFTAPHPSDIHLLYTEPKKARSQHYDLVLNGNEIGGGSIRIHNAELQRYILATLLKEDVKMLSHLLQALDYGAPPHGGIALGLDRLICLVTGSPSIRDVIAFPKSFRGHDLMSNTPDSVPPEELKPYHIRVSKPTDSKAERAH
UniProt P17844: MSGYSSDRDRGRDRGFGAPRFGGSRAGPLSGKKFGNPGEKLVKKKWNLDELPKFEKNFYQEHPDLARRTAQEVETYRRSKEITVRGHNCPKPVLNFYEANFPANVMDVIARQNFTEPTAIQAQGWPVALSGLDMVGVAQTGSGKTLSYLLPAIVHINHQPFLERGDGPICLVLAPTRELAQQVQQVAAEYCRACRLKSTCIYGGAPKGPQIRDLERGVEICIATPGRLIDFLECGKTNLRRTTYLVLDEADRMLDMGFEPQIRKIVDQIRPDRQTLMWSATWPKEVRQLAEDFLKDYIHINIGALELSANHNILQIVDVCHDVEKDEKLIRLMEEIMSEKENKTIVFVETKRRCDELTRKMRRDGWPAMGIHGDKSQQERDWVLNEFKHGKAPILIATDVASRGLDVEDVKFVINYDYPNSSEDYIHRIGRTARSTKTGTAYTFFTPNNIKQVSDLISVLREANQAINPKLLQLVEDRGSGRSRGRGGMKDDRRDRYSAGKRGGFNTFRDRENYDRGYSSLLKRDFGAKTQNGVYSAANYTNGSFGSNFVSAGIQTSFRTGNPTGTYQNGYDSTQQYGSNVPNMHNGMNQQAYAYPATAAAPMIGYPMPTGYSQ

Compound: ClCC(=O)N[C@H]1CCCc2ccccc12
Assay: log2 mean competition ratio of IA-DTB cysteine labelling (DMSO/compound) (log2 ratio); higher = stronger cysteine engagement by compound
Settings: 50 µM; treatment time: 4 h; cell line lysate: HEK293T
Description: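 IA-DTB competitive cysteine chemoproteomics in HEK293T RIPA lysate. Lysates were treated with compound 29 or 30 at 50 or 200 µM for 4 h, then IA-DTB (500 µM, 1 h), trypsin-digested, NeutrAvidin-enriched and analysed by diaPASEF. Competition ratio = intensity DMSO / intensity compound (n=4 treated, n=64 DMSO); binding: mean log2 CR ≥ 1 and p ≤ 0.05 plus QC filters. Target is the cysteine site.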

| Target | log2 mean competition ratio |
| --- | --- |
| CSPG4 C533 (UniProt Q6UVK1) | -0.0475 |
| DCLRE1A C649 | -0.107 |
| D2HGDH C198 (UniProt Q8N465) | 0.00366 |
| CSE1L C272 (UniProt P55060) | 0.174 |
| CSK C290 (UniProt P41240) | 0.245 |
| DDX21 C445 (UniProt Q9NR30) | 0.23 |
| CTPS1 C218 (UniProt P17812) | -0.434 |
| DAGLB C86 (UniProt Q8NCG7) | -0.287 |
| CYP51A1 C351 (UniProt Q16850) | 0.5 |
| CTU1 C290 (UniProt Q7Z7A3) | 0.025 |
| DDX17 C447 (UniProt Q92841) | 0.0784 |
| CTC1 C837 (UniProt Q2NKJ3) | -0.154 |
| CRTAP C84 (UniProt O75718) | 0.0266 |
| DARS2 C152 (UniProt Q6PI48) | 0.535 |
| DDX3X C341 (UniProt O00571) | -0.455 |
| DCTN6 C18 (UniProt O00399) | -0.178 |
| CTTNBP2 C307 | -0.515 |
| CTR9 C1052 (UniProt Q6PD62) | -0.0301 |
| DDX5 C354 (UniProt P17844) | 0.271 |
| CTBP2 C60 (UniProt P56545) | -0.226 |

Same assay, conditions: 200 µM; treatment time: 4 h; cell line lysate: HEK293T

| Target | log2 mean competition ratio |
| --- | --- |
| CSPG4 C533 (UniProt Q6UVK1) | 0.404 |
| DCLRE1A C649 | -0.0237 |
| D2HGDH C198 (UniProt Q8N465) | -0.0399 |
| CSE1L C272 (UniProt P55060) | -0.364 |
| CSK C290 (UniProt P41240) | 0.268 |
| DDX21 C445 (UniProt Q9NR30) | -0.0752 |
| CTPS1 C218 (UniProt P17812) | 0.00807 |
| DAGLB C86 (UniProt Q8NCG7) | -0.218 |
| CYP51A1 C351 (UniProt Q16850) | -0.00757 |
| CTU1 C290 (UniProt Q7Z7A3) | 0.0378 |
| DDX17 C447 (UniProt Q92841) | -0.196 |
| CTC1 C837 (UniProt Q2NKJ3) | -0.0345 |
| CRTAP C84 (UniProt O75718) | 0.384 |
| DARS2 C152 (UniProt Q6PI48) | 0.0803 |
| DDX3X C341 (UniProt O00571) | 0.108 |
| DCTN6 C18 (UniProt O00399) | 0.201 |
| CTTNBP2 C307 | -0.201 |
| CTR9 C1052 (UniProt Q6PD62) | -0.311 |
| DDX5 C354 (UniProt P17844) | -0.0165 |
| CTBP2 C60 (UniProt P56545) | 0.0119 |
